According to patent publication US20100113332A1, “METHOD OF TREATING AN INFLAMMATORY DISEASE BY DOUBLE STRANDED RIBONUCLEIC ACID” (NASTECH PHARMACEUTICAL COMPANY INC., priority 2004, published 2010):
Part of at least one peptide drawing is inferred or uncertain, most often the ends.

Legend:
9L/LacZ cells = assay: siRNA uptake by flow cytometry in 9L/LacZ cells; type: cell-based, rat; conditions: peptide/siRNA complex
[1] = tested on: mouse tail fibroblast (MTF) cells; type: cell-based; conditions: peptide/siRNA complex

Molecule	Percent Uptake LacZ Cells (9L/LacZ cells)	Percent Uptake Primary MTF Cells [1]
N=C(N)NCCC[C@H](NC(=O)CN)C(=O)N[C@@H](CCCCN)C(=O)N[C@@H](CCCCN)C(=O)N[C@@H](CCCNC(=N)N)C(=O)N[C@@H](CCCNC(=N)N)C(=O)N[C@@H](CCC(N)=O)C(=O)N[C@@H](CCCNC(=N)N)C(=O)N[C@@H](CCCNC(=N)N)C(=O)N[C@@H](CCCNC(=N)N)C(=O)N1CCC[C@H]1C(=O)N1CCC[C@H]1C(=O)N[C@@H](CCC(N)=O)C(=O)N[C@@H](CS)C(N)=O [PN173]	85%	95%
H-GALFLGFLGAAGSTMGAWSQPKSKRKVC-NH2 [PN453]		79%
H-RRRQRRKRGGDIMGEWGNEIFGAIAGFLG-NH2 [PN250]	99%	86%
